Assay [1] has as its target T1, BD-ROC1 (rice) (UniProt Q6ZAR0).
T1 sequence: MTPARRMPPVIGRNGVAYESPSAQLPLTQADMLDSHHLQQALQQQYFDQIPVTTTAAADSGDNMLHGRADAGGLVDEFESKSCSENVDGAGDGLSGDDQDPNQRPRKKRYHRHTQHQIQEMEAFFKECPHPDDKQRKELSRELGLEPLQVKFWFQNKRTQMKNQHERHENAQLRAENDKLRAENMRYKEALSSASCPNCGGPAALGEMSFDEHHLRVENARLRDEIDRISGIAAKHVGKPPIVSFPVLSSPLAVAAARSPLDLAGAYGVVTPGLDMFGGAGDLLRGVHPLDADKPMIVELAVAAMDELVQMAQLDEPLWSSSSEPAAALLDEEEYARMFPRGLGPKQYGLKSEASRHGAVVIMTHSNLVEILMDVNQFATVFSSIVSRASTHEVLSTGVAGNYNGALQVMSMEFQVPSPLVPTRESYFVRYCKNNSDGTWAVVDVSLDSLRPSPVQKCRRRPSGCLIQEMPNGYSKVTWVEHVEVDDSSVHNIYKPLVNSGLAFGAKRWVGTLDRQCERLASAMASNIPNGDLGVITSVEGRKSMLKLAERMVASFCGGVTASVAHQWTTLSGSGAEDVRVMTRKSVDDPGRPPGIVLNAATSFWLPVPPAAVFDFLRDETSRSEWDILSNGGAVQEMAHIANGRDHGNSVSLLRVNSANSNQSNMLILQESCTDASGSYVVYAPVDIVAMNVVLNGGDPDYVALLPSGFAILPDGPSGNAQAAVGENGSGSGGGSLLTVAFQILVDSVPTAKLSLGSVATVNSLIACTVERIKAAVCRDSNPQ
In words: two-hybrid; yeast AH109, pGBKT7 bait and pGADT7 prey; liquid beta-galactosidase activity assay (ONPG) after culture at 30 °C for 2 days.

The target in assay [2] is T1, BD-ROC1 (rice). The assay is described as follows: two-hybrid; yeast AH109, pGBKT7 bait and pGADT7 prey; growth of dilutions on SD/-Leu-Trp-Ade-His without and with 20 mM 3AT, 30 °C, 2 days.
Another assay concerns the target T2, ROC1-NYFP (rice) (UniProt Q6ZAR0).
T2 sequence: T1 sequence
The assay is described as follows: split reporter; BiFC with split YFP in N. benthamiana leaves, 2 days after infiltration, confocal microscopy; H2B-mCherry as nuclear marker.

A further assay deals with T3, ROC1-Flag (rice) (UniProt Q6ZAR0).
T3 sequence: T1 sequence
In words: co-IP; ROC1-Flag co-expressed with GFP fusions in N. benthamiana; extract in NB1 buffer; anti-FLAG affinity beads, 3 h, 6 washes; blot with anti-GFP.

Results are given in words; binding and its absence hold for the method and conditions named. For some assays here: In cells and extracts the contact can be indirect. Some entries that bind do so weakly or less than the wild type. Tags and fused reporters may be left off the sequences shown.

B1: AD-ROC8 (protein, UniProt Q69T58 1-710)
chain: MDFGDEPEGSDSQRRRKRYHRHTPRQIQQLEAMFKECPHPDENQRAQLSRELGLEPRQIKFWFQNRRTQMKAQHERADNCFLRAENDKIRCENIAIREALKNVICPTCGGPPVGEDYFDEQKLRMENARLKEELDRVSNLTSKYLGRPFTQLPPATPPMTVSSLDLSVGGMGGPSLDLDLLSGGSSGIPFQLPAPVSDMERPMMAEMATRAMDELIRLAQAGDHIWSKSPGGGVSGGDARETLNVDTYDSIFSKPGGSYRAPSINVEGSRESGLVLMSAVALADVFMDTNKWMEFFPSIVSKAHTIDVLVNGMGGRSESLILMYEELHIMTPAVPTREVNFVRYCRQIEQGLWAIADVSVDLQRDAHFGAPPPRSRRLPSGCLIADMANGYSKVTWVEHMEVEEKSPINVLYRDLVLSGAAFGAHRWLAALQRACERYASLVALGVPHHIAGVTPEGKRSMMKLSQRMVNSFCSSLGASQMHQWTTLSGSNEVSVRVTMHRSTDPGQPNGVVLSAATSIWLPVPCDHVFAFVRDENTRSQWDVLSHGNQVQEVSRIPNGSNPGNCISLLRGLNASQNSMLILQESCTDASGSLVVYSPIDIPAANVVMSGEDPSSIPLLPSGFTILPDGRPGSAAGASTSSAGPLAAARGGGGGGAGGGSVVTVAFQILVSSLPSSKLNAESVATVNGLITTTVEQIKAALNCSAHGHHP
For the molecule B1, the binding entry with BD-ROC1 (rice) [1] and with BD-ROC1 (rice) [2] was “binds” throughout.

B2: ROC8-CYFP (protein, UniProt Q69T58 1-710)
chain: B1 chain
Take B2: in the assay with ROC1-NYFP (rice), the binding result was “binds”.

B3: ROC1-CYFP (protein, UniProt Q6ZAR0 1-784)
chain: T1 sequence
B3: the binding entry in the assay with ROC1-NYFP (rice) is recorded as “binds”.

B4: ROC1-GFP (protein, UniProt Q6ZAR0 1-784)
chain: T1 sequence
Turning to B4, in the assay with ROC1-Flag (rice), the binding entry was “binds”.

B5: AD-ROC1 (protein, UniProt Q6ZAR0 1-784)
chain: T1 sequence
As to B5, the binding result with BD-ROC1 (rice) [1] and with BD-ROC1 (rice) [2] was “binds weakly” each time.

B6: AD-ROC5 (protein, UniProt Q6EPF0 1-804)
chain: MSFGGLFDGGGGGGMQFPFASGFASSPALSLALDNAGGGIGGRMLGGGAGAGSSAGGAMTRDTEAENDSRSGSDHLDAISAAGEDDVEDAEPSNSRKRKKRYHRHTPQQIQELEALFKECPHPDEKQRAELSRRLSLDARQVKFWFQNRRTQMKTQLERHENALLKQENDKLRAENMTIREAMRSPMCGSCGSPAMLGEVSLEEQHLRIENARLKDELNRVCALATKFLGKPISLLSPPPLLQPHLSLPMPNSSLELAIGGIGGLGSLGTLPGCMNEFAGGVSSPMGTVITPARATGAAIPSLVGNIDRSVFLELAISAMDELVKMAQMDDPLWVPALPGSPSKEVLNFEEYLHSFLPCIGMKPAGYVSEASRESGLVIIDNSLALVETLMDERRWSDMFSCMIAKATVLEEVSTGIAGSRNGALLLMKAELQVLSPLVPIREVTFLRFCKQLAEGAWAVVDVSIDGLVRDHNSGTAPTGGNVKCRRVPSGCVMQDTPNGYCKVTWVEHTEYDEASVHQLYRPLLRSGLAFGARRWLATLQRQCECLAILMSSATVTANDSTAISQEGKRSMLKLARRMTENFCAGVSASSAREWSKLDGATGSIGEDVRVMARKSVSEPGEPPGVVLSAATSVWVPVAPEKLFNFLRDEQLRAEWDILSNGGPMQEMTQIAKGQRDGNSVSLLRASAVSANQSSMLILQETCTDASGSIVVYAPVDIPAMQLVMNGGDSTYVALLPSGFAILPDGPRIGATGYETGGSLLTVAFQILVNNQPTAKLTVESVETVNNLISCTIKKIKTALQCDA
As for B6, the binding entry with BD-ROC1 (rice) [1] and with BD-ROC1 (rice) [2] was “binds” throughout.

B7: ROC5-CYFP (protein, UniProt Q6EPF0 1-804)
chain: B6 chain
In the case of B7, in the assay with ROC1-NYFP (rice), the binding result is given as “binds”.

B8: ROC5-GFP (protein, UniProt Q6EPF0 1-804)
chain: B6 chain
In the case of B8, the binding entry with ROC1-Flag (rice) is reported as “binds”.

For the origin of these results see PMC11282044.
